Values joined by “and” are separate entries in the source; they are usually repeats but may differ in a detail not shown here. Equal entries are not always repeated. Structures can show the parent of a compound that is named as a salt. At least one read-out could not be matched to a standard name with certainty.
System: pmm-2 F125L/F125L worms
Assay: Bortezomib-induced growth suppression rescue screen in pmm-2 F125L worms
Format: in vivo, nematode (worms)
Conditions: 25 μM drug, 11 μM Bzb, 5 days, one row per replicate; for Area: area occupied by worms per well
Description: A F119L point mutation strain, orthologous F125L in worms was created.
Because an underlying defect in glycosylation may be manifested when subjected to external chemical stressors, Pmm-2 F119L homozygous animals were subjected to Tunicamycin and Bortezomib drug exposures. Tunicamycin is an inhibitor of N-linked glycosylation and Bortezomib (Bzb) is an irreversible inhibitor of the proteasome. It was contemplated that either or both drugs would affect the Pmm-2 mutants differently compared to wild type (“WT”).
Thus, Bzb-induced growth suppression was used as a means to identify compounds that might rescue the global effects of exacerbated glycosylation deficiency. Using this approach, animals were age-synchronized to obtain L1 larvae. Fifteen L1 larvae were dispensed into wells of a 384-well plate containing 25 μM of drugs (obtained from the MicroSource Spectrum library purchased from MicroSource Discovery Systems) and 11 μM Bzb. Bacterial media at fixed optical density was added to wells to enable worms to grow for a 5 day period. Animals were dispensed using Biosorter, a large particle flow cytometer by Union Biometrica, Mass. At the end of the 5 day period, animals were treated with 15 μls of 8 mM sodium azide (for 55 μls of total assay volume). After 20 minutes, immobilized animals were imaged using a plate imager under transmitted light. A custom image processing script was used to extract the areas occupied by worms/well over a 5 day period. Each plate has positive controls (no Bzb) and negative controls (11 μM Bzb) that was used to determine the z score of test wells per plate. After outlier correction for each plate in each replicate, data from all three replicates was compared. Wells per plate with positive z scores greater than 2 were identified as “hits.” If hits reproduced across all three replicates were then compared. […] At least 13 of the 20 compounds belong to the category of antioxidants; still others fall in the category of catecholamines

| Structure (SMILES) | Area | Z-score relative to Negative Controls |
| --- | --- | --- |
| CCC(N)C(O)c1ccc(O)c(O)c1 (stereo not shown) [ETHYLNOREPINEPHRINE HYDROCHLORIDE, ethylnorepinephrine hydrochoride, reference compound] | 173137 Au and 416364 Au and 413271 Au | 3.767 Au and 7.806 Au and 5.003 Au |
| O=c1c(O)c(-c2ccc(O)c(O)c2)oc2c(O)c(O)cc(O)c12 [GOSSYPETIN, gossypetin] | 210243 Au and 358709 Au and 355885 Au | 5.26 Au and 5.487 Au and 3.327 Au |
